This passage reports binding results from paper PMC3990521.

Amino acid sequences for entries named in this document (tags omitted).
UniProt Q03468: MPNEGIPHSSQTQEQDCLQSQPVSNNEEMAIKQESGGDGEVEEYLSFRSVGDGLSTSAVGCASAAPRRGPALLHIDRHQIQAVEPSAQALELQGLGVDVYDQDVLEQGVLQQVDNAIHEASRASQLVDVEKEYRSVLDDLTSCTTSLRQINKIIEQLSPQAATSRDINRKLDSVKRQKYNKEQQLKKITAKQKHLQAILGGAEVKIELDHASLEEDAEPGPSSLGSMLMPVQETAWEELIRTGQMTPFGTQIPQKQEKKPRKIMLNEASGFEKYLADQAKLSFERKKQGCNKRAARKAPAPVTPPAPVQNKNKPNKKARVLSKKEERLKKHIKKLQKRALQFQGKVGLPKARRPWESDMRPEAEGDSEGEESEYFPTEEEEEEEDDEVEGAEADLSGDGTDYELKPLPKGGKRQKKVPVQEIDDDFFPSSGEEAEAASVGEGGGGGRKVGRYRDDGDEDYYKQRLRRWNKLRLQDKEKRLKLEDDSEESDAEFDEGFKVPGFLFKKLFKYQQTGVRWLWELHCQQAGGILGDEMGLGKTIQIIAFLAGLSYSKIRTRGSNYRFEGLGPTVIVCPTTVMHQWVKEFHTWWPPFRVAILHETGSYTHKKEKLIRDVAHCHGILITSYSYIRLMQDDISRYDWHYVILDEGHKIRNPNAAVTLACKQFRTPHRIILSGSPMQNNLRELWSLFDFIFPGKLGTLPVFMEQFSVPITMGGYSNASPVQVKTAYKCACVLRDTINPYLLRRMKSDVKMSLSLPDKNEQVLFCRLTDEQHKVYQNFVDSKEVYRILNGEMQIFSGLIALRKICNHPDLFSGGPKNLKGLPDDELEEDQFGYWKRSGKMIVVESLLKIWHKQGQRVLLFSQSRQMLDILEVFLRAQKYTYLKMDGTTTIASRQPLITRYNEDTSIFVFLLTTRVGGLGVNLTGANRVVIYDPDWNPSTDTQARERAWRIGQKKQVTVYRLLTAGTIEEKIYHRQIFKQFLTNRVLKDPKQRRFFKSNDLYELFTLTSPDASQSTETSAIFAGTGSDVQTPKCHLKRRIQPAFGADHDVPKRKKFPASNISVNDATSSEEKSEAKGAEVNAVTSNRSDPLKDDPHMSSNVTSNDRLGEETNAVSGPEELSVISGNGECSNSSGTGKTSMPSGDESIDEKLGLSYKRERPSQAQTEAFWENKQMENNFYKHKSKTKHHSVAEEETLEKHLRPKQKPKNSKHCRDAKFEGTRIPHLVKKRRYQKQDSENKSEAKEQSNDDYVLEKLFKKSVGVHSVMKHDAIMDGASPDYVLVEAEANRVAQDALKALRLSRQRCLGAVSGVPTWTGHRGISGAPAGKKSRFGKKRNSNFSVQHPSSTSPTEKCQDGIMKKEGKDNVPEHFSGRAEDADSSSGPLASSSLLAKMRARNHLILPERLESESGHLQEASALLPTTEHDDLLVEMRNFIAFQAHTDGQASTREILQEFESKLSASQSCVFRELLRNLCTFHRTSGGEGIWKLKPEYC

In test [1] the target is Cockayne syndrome complementation B protein (CSB) (human) (UniProt Q03468). Put plainly: co-IP; unfixed lysate of CS1AN cells expressing CSB in Buffer B60 (20 mM HEPES pH 7.9, 60 mM NaCl, 0.5% Triton X-100), chromatin removed by centrifugation; supernatant precipitated with monoclonal anti-CSB antibody 1B1 and protein G agarose at 4°C, four washes; beads-only control in parallel; western blot for c-Jun. On the technique in general: A western blot detects proteins with antibodies after separation by electrophoresis.

For test [2], the target named is Cockayne syndrome complementation B protein (CSB) (human), Q03468. Put plainly: ChIP-western; cells pre-extracted in Buffer B (150 mM NaCl, 0.5% Triton X-100) to remove soluble CSB and c-Jun, pellet fixed with 1% formaldehyde 10 min, sonicated; chromatin immunoprecipitated with monoclonal anti-CSB antibody 1B1, cross-links reversed, western blot for c-Jun. Conditions: remark: other sources report otherwise.

No constants are given. Whether binding was seen depends on the method and setting. For some assays here: Binding seen in cells or lysates may run through a third protein. Some binding calls cover weakened binding; strength is not graded here.

Consider c-Jun (from UniProt P05412 1-331), for which the binding result in test [1] is recorded as “binds weakly”.

B1: c-Jun, P05412 1-331 (protein)
chain: MTAKMETTFYDDALNASFLPSESGPYGYSNPKILKQSMTLNLADPVGSLKPHLRAKNSDLLTSPDVGLLKLASPELERLIIQSSNGHITTTPTPTQFLCPKNVTDEQEGFAEGFVRALAELHSQNTLPSVTSAAQPVNGAGMVAPAVASVAGGSGSGGFSASLHSEPPVYANLSNFNPGALSSGGGAPSYGAAGLAFPAQPQQQQQPPHHLPQQMPVQHPRLQALKEEPQTVPEMPGETPPLSPIDMESQERIKAERKRMRNRIAASKCRKRKLERIARLEEKVKTLKAQNSELASTANMLREQVAQLKQKVMNHVNSGCQLMLTQQLQTF
For the molecule B1, in test [2], the binding result was “binds”.
